± gives the standard deviation. Only a part is listed here, and it is no random draw. The uncertainty is large for many entries.
What follows are sequences tested on MIWI (PIWIL1) piRISC loaded with piRNA #2 (30 nt) (assay: pre-steady-state target cleavage rate (min^-1); MIWI and MILI are mouse PIWI proteins and EfPiwi is from a freshwater sponge; tags in brackets are library labels; higher = faster piRNA-guided slicing of the target). Conditions: guide: piRNA #2 5'p-UUAGGUAACCCAGUAGAUCCAGAGGAAUUC; auxiliary factor: 500 nM mouse GTSF1.
How it was run: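 For Cleave-'n-Seq, a transcribed, DNA-blocked target RNA library […] met 1 nM active affinity-purified piRISC with one synthetic guide at 33 °C for 0–8 or 0–960 min in HEPES–potassium acetate buffer, with or without 500 nM GTSF1 partner protein. Uncleaved targets were sequenced and normalised to depth and weakly complementary targets, with three trials pooled and k3 capped at 0.0001 min^-1. A burst-and-steady-state fit supplied the pre-steady-state cleavage rate.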
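Note: 1 nM active piRISC with 0.1 nM target library at 33 °C single turnover.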

Sequence | pre-steady-state target cleavage rate
CUUAAGGAGACCUAGUACUGGGUUACAUAA | 0.00145 ± 0.0042
CUUAAGGAGACCAUCUACUGGGUUACCUGAA | 0.000912 ± 0.016
CUUAAGGAGACCUACUACUGGGUUAACCUAA | 0.00132 ± 0.0078
CUUAAGGAGUGCAUCUAGUGGGUUACCUAA | 0.00123 ± 0.0063
CUUAAGGAGACGAUCUACGUGGGUUACCUAA | 0.000959 ± 0.011
CUUAAGGAGACCUACUACUGGGUAACGUAA | 0.000607 ± 0.012
CUAUUCCUCUGGAUCUACUGGGUAUGGAUA [g8:g28:cont:t1A] | 0.00177 ± 0.0074
CUUAAGGAGACCAACUACUGGGUAACCUAA | 0.000747 ± 0.011
CUUAAGGAGACCUAGAACUGGGUUGCCUAA | 0.000496 ± 0.016
CUUAAGGUCUGGAUCUACUAGGGUUACCUAA | 0.00107 ± 0.0069
GAAUUCCUCUGGAUCUACUCGCUUACCUAA | 0.00392 ± 0.0028
CUUAAGGAGACCUAGAACUGGGUUACCUAA | 0.000132 ± 0.038
CUUAAGGAGACCUACUACUGGGUUACCUCAA | 0.0014 ± 0.0063
CUUAAGGAGACCUAGUACUGGGUUACCUA | 0.0012 ± 0.0041
CUUAAGGAGACCUAGAUCUGGGUUACCAAA | 0.000506 ± 0.012
CUUAAGGAGACCUAGAUGACGGUUACCUAC [g2:g10:cont:t1C] | 0.000558 ± 0.011
CUUAAGGUCUGGAUCUACUCGGUAACCUAA | 0.000327 ± 0.039
CUUAAGGAGUGCAUCUACUGGGUUUCCUAA | 0.00192 ± 0.0042
CUUAUCCUCUGGAUCUACUGCCAUACCUAA | 0.00396 ± 0.0048
CUUAAGGAGACCUUCAAGUGGGUUACCUAA | 0.000883 ± 0.0086
CUUAAGGAGUGGAUCUACUCGGUUUCCUAA | 0.000707 ± 0.016
CUUAAGGAGACCAUCUACUGGGUUGCCUAA | 0.00188 ± 0.0067
CUUAAGGAGACCUAGAACUGGGUUACCUAU [g2:g14:cont:t1U] | 0.000167 ± 0.021
CUUAAGGAGACCAUGUACUGCGUUACCUAA | 0.000719 ± 0.0078

Sequence | pre-steady-state target cleavage rate
CUUAAGGAGUGGUUCUACUGGGAUACCUAA | 0.00364 ± 0.0037
CUUAAGGAGAGGAUCUACUGAGGUUACCUAA | 0.000723 ± 0.012
CUUAAGGAGACCUUCUACUCGGUUACGUAA | 0.000941 ± 0.0099
CUUAAGGAGAGGAACUACUGGGUUAGCUAA | 0.000321 ± 0.032
CAAUUCCUCUGGAUCUCACUGGGUUACCUAA | 0.0033 ± 0.0047
CUUAAGGAGACGAUCUACUCGGUUUCCUAA | 0.000949 ± 0.01
CAAUACCUCUCGAUCUACUGGGUUACCUAA | 0.625 ± 0.056
CUUAAGGAGUGGAUCUUCUGGGUUACCUUA | 0.00261 ± 0.0041
CUUAAGGAGACGAUCUACUGGGUGACCUAA | 0.000263 ± 0.035
CUUAAGGAGAGGAUCUACCGGGUUACCUAA | 0.000588 ± 0.015
CUUAAGGAGACCUAGUUCUGGGAUACCUAA | < 0.0001
CUUAAGGAGACCAUCAACUGGGUUAGCUAA | 0.000505 ± 0.015
CAAUUCCUCUGCAUCUACUGGGUUACCUAA | 0.57 ± 0.049
CUUAAGGAGAGGAUCUAGUGGGUUACGUAA | 0.00221 ± 0.0061
CUUAAGGAGACGUUCUUCUGGGUUACCUAA | 0.000559 ± 0.016
CUUAAGGAGACCAUCUACUGGGUUACACUAA | 0.00113 ± 0.007
CUUAAGGAGACCUAGAUCUGCGGUUACCUAA | 0.000646 ± 0.01
GAAUUCCUCUGGUUCUACUGGGUUACCUUA | 0.427 ± 0.064
CUUAAGGAGACCUAGAUCUGGGUUACGCUAA | 0.000817 ± 0.0095
CUUAAGGAGACCUAGAUCUGGGUUACACUAA | 0.000829 ± 0.01
CUUAAGGACUGGAUCUACUGGCUUACCAAA | 0.000463 ± 0.043
CUUUUCCUCUGGAUCUUCUGGGAUACCUAA | 0.146 ± 0.022
CUUAAGGAGACGAUCUACUGGGUUUCCUUA | 0.00108 ± 0.0075
CUUAAGGAGAGGAUCUACUGGGUUUCCAAA | 0.000477 ± 0.014

Sequence | pre-steady-state target cleavage rate
CUUAAGGACUGGAUCUACUGGCUUACGUAA | 0.00804 ± 0.012
CUUAAGGAGACCUUCUACUGGGUUACCUCA | 0.00167 ± 0.0056
CUUAAGGAGACCUACUACUGGUUUACCUAA | 0.00158 ± 0.0059
CUUAAGGAGUGGAUCUUCUGCGUUACCUAA | 0.00315 ± 0.0064
CAAUUCCUCUGGCAUCUACUGGGUUACCUAA | 0.636 ± 0.17
CUUAAGGAGACCUAGAUGACGGGUACCUAA | 0.000265 ± 0.038
CUUAAGCUCUGGAUCUACUGGCAAACCUAA | 0.000723 ± 0.013
CUUAAGGUCUGGAUCUUCUGGGAUACCUAA | 0.0453 ± 0.017
CUUAAGGAGACCUAGAUCUGGGUUGCCUAA | 0.000628 ± 0.012
CUUAAGGAGACGAUCUACUGGGUUUCCAAA | 0.00119 ± 0.0086
CUUAAGGAGACGAUCUACGGGGUUACCUAA | 0.00123 ± 0.008
CAAUUCCUCUGGUUCUACUGGGUUACCUUA | 0.475 ± 0.066
CUUUUCCUCAGGAUCUACUGCGUUACCUAA | 0.524 ± 0.062
CUAUUCCUCUGGAUCUACUGGCUUAGCUAA | 0.00404 ± 0.005
CUUAAGGAGACCAUCUAUGGGUUACCUAA | 0.00149 ± 0.0074
CUUAAGGAGUGGAUCUACUGGGUUACUAA | 0.00407 ± 0.0048
CUUAAGGACUGGAUGCUACUGGGUUACCUAA | 0.0245 ± 0.033
CUAUUCCUCUGGAUCUACUGGGUUACCUAA [g2:g28:cont:t1A] | 0.388 ± 0.062
CUUAAGGAGAGGAUCUUCUGGGUUACGUAA | 0.00329 ± 0.0057
GAUUUCCUCUCGAUCUACUGGGUUACCUAA | 0.66 ± 0.067
CUUAAGGACUGGAUCUACUGGCUAACCUAA | 0.000832 ± 0.028
CUAUUCCUCUGGAUCUACUGGGUACCUAA | 0.000721 ± 0.011
CUUAAGGAGACGAUCUAGUGGGUAACCUAA | 0.000233 ± 0.014

No new results follow: entries from further up.
Sequence | pre-steady-state target cleavage rate
CUUAAGGAGUGGAUCUUCUGGGUUACCUUA | 0.00261 ± 0.0041
CUUAAGGAGACGAUCUACUGGGUGACCUAA | 0.000263 ± 0.035
CUUAAGGAGAGGAUCUACCGGGUUACCUAA | 0.000588 ± 0.015
CUUAAGGAGACCUAGUUCUGGGAUACCUAA | < 0.0001
CUUAAGGAGACCAUCAACUGGGUUAGCUAA | 0.000505 ± 0.015
CAAUUCCUCUGCAUCUACUGGGUUACCUAA | 0.57 ± 0.049
CUUAAGGAGAGGAUCUAGUGGGUUACGUAA | 0.00221 ± 0.0061
CUUAAGGAGACGUUCUUCUGGGUUACCUAA | 0.000559 ± 0.016
CUUAAGGAGACCAUCUACUGGGUUACACUAA | 0.00113 ± 0.007
CUUAAGGAGACCUAGAUCUGCGGUUACCUAA | 0.000646 ± 0.01
GAAUUCCUCUGGUUCUACUGGGUUACCUUA | 0.427 ± 0.064
CUUAAGGAGACCUAGAUCUGGGUUACGCUAA | 0.000817 ± 0.0095
CUUAAGGAGACCUAGAUCUGGGUUACACUAA | 0.000829 ± 0.01
CUUAAGGACUGGAUCUACUGGCUUACCAAA | 0.000463 ± 0.043
CUUUUCCUCUGGAUCUUCUGGGAUACCUAA | 0.146 ± 0.022
CUUAAGGAGACGAUCUACUGGGUUUCCUUA | 0.00108 ± 0.0075
CUUAAGGAGAGGAUCUACUGGGUUUCCAAA | 0.000477 ± 0.014
CUUAAGGACUGGAUCUACUGGCUUACGUAA | 0.00804 ± 0.012
CUUAAGGAGACCUUCUACUGGGUUACCUCA | 0.00167 ± 0.0056
CUUAAGGAGACCUACUACUGGUUUACCUAA | 0.00158 ± 0.0059
CUUAAGGAGUGGAUCUUCUGCGUUACCUAA | 0.00315 ± 0.0064
